These are yes or no findings as the source states them, for the method shown.

The results in this text go back to article PMC7246762, “Peptide Interference with APP and Tau Association: Relevance to Alzheimer’s Disease Amelioration” (International Journal of Molecular Sciences, 2020).

In assay [1] the target is T1, Tau1 (19-34) peptide labelled with rhodamine (human).
T1 sequence (peptide, rhodamine (labelled with rhodamine isothiocyanate; site not stated)): GLGDRKDQGGYTMHQD
Briefly: far-Western, overlay or dot blot; mixtures of a fluorescein-labelled (green) and a rhodamine-labelled (red) peptide spotted on a nitrocellulose membrane; yellow colour read as binding; both purified.

Assay [2] concerns the target T2, APP1 (390-412) peptide labelled with rhodamine (human).
T2 sequence (peptide, rhodamine (labelled with rhodamine isothiocyanate; site not stated)): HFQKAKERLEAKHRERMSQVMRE
Described as above.

ATVIVITLVMLKKKQYTS (fluorescein (labelled with fluorescein isothiocyanate; site not stated)) [APP2 (713-730) peptide labelled with fluorescein]: the binding entry in assay [1] and in assay [2] was “no binding” throughout.
